Consider two molecules from patent US20120088262A1, “CYANINE COMPOUNDS, CONJUGATES AND METHOD OF USE” (Millipore Corporation, priority 2010, published 2012).

The subject of the series is live and dead cells. The experiment in a line: Cell viability detection with amine reactive viability dye by flow cytometry. Type of series: cell-based. The settings on record: used as a viability dye. How it is done: Pipet 100 uL of prepared cells in biological buffer or media in a reaction vessel such as a tube or microwell plate. Add 100 uL of working solution to 100 uL cell sample; mix well and incubate at the room temperature for 15 minutes. Remove supernatant without disturbing the pellet. Wash the cells with PBS with bovine serum albumin (BSA) (range 0.2-10%) per well; centrifuge plate at 1000 rpm for 5 minutes; remove the supernatant by aspiration without disturbing the cell pellet.
Cells were killed by heat or treated with diamide or staurosporine inducers.
(In general: In flow cytometry, cells or beads pass a laser one at a time.)

For the molecule `CC(C(=O)ON1C(=O)CCC1=O)c1ccc(C[N+]2=C(/C=C/C=C3\Oc4ccccc4N3Cc3ccc(CC(=O)ON4C(=O)CCC4=O)cc3)C(C)(C)c3cc(S(=O)(=O)[O-])ccc32)cc1` (centres unmarked) [Compound No. 12], the “fluorescence bleedthrough in adjacent channels” value is “minimal fluorescence is seen in the Red2 and NIR2 channel”.
As for `CC1(C)C(/C=C/C=C/C=C2\Oc3ccccc3N2Cc2ccc(CC(=O)ON3C(=O)CCC3=O)cc2)=[N+](Cc2ccc(CC(=O)ON3C(=O)CCC3=O)cc2)c2ccc(S(=O)(=O)[O-])cc21` [Compound No. 14], the “fluorescence bleedthrough in adjacent channels” value is reported as “low bleedthrough”.
